Source: patent US5432156A, “Therapeutic agent for digestive tract diseases” (Nisshin Flour Milling Co., Ltd., priority 1993, dated 1995)
At least one peptide structure holds a part that was inferred or is arguable (an end, a ring closure or a residue). Peptide text beside a SMILES is read from it.

Test system: intestinal mucosa
Assay: Example 2: weight of intestinal mucosa in rats, glicentin compared with related peptides
Format: in vivo
Design: unit not given here
Conditions: 1 nmol per rat s.c.; third quarter of the small intestine from the duodenum

SMILES	Intestinal mucosal weight
CSCC[C@H](NC(=O)[C@H](CCC(N)=O)NC(=O)[C@H](CC(=O)O)NC(=O)[C@@H]1CCCN1C(=O)[C@H](CC(=O)O)NC(=O)[C@H](CO)NC(=O)[C@H](CC(C)C)NC(=O)[C@@H]1CCCN1C(=O)[C@H](CC(=O)O)NC(=O)[C@H](C)NC(=O)[C@H](CCC(N)=O)NC(=O)[C@H](CO)NC(=O)[C@H](C)NC(=O)[C@H](CO)NC(=O)[C@H](Cc1ccccc1)NC(=O)[C@H](CO)NC(=O)[C@H](CCCNC(=N)N)NC(=O)[C@H](CO)NC(=O)[C@H](CCCCN)NC(=O)[C@H](CCC(=O)O)NC(=O)[C@H](CCC(=O)O)NC(=O)[C@@H](NC(=O)[C@H](CC(=O)O)NC(=O)[C@H](CCC(N)=O)NC(=O)[C@H](CC(C)C)NC(=O)[C@H](CO)NC(=O)[C@@H](N)CCCNC(=N)N)[C@@H](C)O)C(=O)N[C@@H](CC(N)=O)C(=O)N[C@@H](CCC(=O)O)C(=O)N[C@@H](CC(=O)O)C(=O)O [GRPP] (H-RSLQDTEEKSRSFSASQADPLSDPDQMNED-OH)	0.491 ± 0.046
CC(C)C[C@H](NC(=O)[C@H](Cc1ccc(O)cc1)NC(=O)[C@H](CCCCN)NC(=O)[C@H](CO)NC(=O)[C@H](Cc1ccc(O)cc1)NC(=O)[C@H](CC(=O)O)NC(=O)[C@H](CO)NC(=O)[C@@H](NC(=O)[C@H](Cc1ccccc1)NC(=O)[C@@H](NC(=O)CNC(=O)[C@H](CCC(N)=O)NC(=O)[C@H](CO)NC(=O)[C@@H](N)Cc1c[nH]cn1)[C@@H](C)O)[C@@H](C)O)C(=O)N[C@@H](CC(=O)O)C(=O)N[C@@H](CO)C(=O)N[C@@H](CCCNC(=N)N)C(=O)N[C@@H](CCCNC(=N)N)C(=O)N[C@@H](C)C(=O)N[C@@H](CCC(N)=O)C(=O)N[C@@H](CC(=O)O)C(=O)O [Glucagon 1-21, glucagon 1-21]	0.490 ± 0.048
